Measurements published in publication PMC11848413, “Bacterial polysaccharide lyase family 33: Specificity from an evolutionarily conserved binding tunnel” (Proceedings of the National Academy of Sciences of the …, 2025).
Results are given in words; binding and its absence hold for the method and conditions named. Some binding calls cover weakened binding; strength is not graded here. Where a sequence is shown, tags or fusion partners need not be part of it.

Biological target: BcellWH2_04512 (BcPL33^HA), PL33_1 hyaluronidase from Bacteroides cellulosilyticus WH2 (Bacteroides cellulosilyticus WH2)
Assay: crystal structure; apo crystal structures of BtPL33^HA and BcPL33^HA; dimer interface analysed with PISA; both purified

B1: BcellWH2_04512 (BcPL33^HA), PL33_1 hyaluronidase from Bacteroides cellulosilyticus WH2 (enzyme)
chain: YTERNLLQKAAGSEEQLKEALVMNQKWVPYPAYNDRAGWNELLGTNKESLIRAGEKMLNYEWKVIRATDYLEYERSGERNIMQNPYEANRKAINALMLAELAEGKGRFIDQLINGAFYSCEMTSWVLSAHLVRQSTKRSLPDYREQVIDLGSGNFGSMLSWVYYFFHDSFDKIDPVISQRLRHTLQERILDPYMNNDREWWMAFQWKPGMIINNWNPWCNSNVLQCYLLLENDRDRLAKAVWRSMQSVDKFINFVKADGACEEGPSYWGHAAGKMYDYLQILSDGTDGKVSLFKEPMIRRMGEYISRTYVGNGWVVNFADASAKGGGDAPLIYRYGRAVGSEEMMQFAAYLLDGKRPSVPLGNDTFRSLQSILWNGELEKTTAAHTIPACTWYPETEFCYLTNKSGWFLATKGGFNNESHNHNDVGTFSLYVNTIPVLIDAGVGTYTRQTFSSERYTIWTMQSNYHNLPMINGVPQSFGQNYKATDVVCQPKKRFFSANIATAYPKEAEVNSWTRAYSLGDKQLTITDNFSLKSAKESNQVNFLTWGKVDISVPGKVTIDVQGQKVTLEYPGEFTATVETINLPDTRLSNVWGTEIYRIALKDKDARLTGKYKFVIK
notes: BcellWH2_04512, polysaccharide lyase family 33 subfamily 1 hyaluronidase of Bacteroides cellulosilyticus WH2; 68% identical to BtPL33^HA; Cloned in pET28a with either an N- or a C-terminal His6 tag; source: E. coli BL21 (DE3) or TUNER, purified (Talon cobalt IMAC, S200 Superdex SEC)
binding: binds
